Data source: PubChem BioAssay AID493246 (Drosophila RNAi Screening Center, 2011)
Purpose: 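Genome-wide search for dsRNAs that reduce cell number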 (primary screen). System: Drosophila Kc and S2R+ cells. Reagents: long dsRNA against Drosophila genes. Measurement: 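Raw, unnormalised count of remaining cells in each well; per-plate z-scores of cell number underlie the calls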. Direction: Kc cell number and S2R+ cell number: higher = more cells remaining. Active means: 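Active when the per-plate z-score of cell number is 3 or more in the direction of fewer cells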.
The screen tested about 21,000 reagents; below is an unselected part of those that have a named target and a result. Of all reagents, 429 (2%) got an active call. 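Values are raw and not normalised between plates; calls rest on per-plate z-scores that were not deposited.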 Names joined by + are all predicted targets of the reagent. Not stated in the record: the amount of reagent, the time to read-out.

What is on record for AdoR [DRSC16556]?
Kc cell number, rep 1: 1.44e6; Kc cell number, rep 2: 1.44e6; S2R+ cell number, rep 1: 9.91e5; S2R+ cell number, rep 2: 1.10e6; Outcome: inactive

Which result is listed for Gnpat [DRSC16960]?
Kc cell number, rep 1: 1.60e6; Kc cell number, rep 2: 1.53e6; S2R+ cell number, rep 1: 9.51e5; S2R+ cell number, rep 2: 1.08e6; Outcome: inactive

What did the screen give for CG34155 [DRSC13991]?
Kc cell number, rep 1: 1.50e6; Kc cell number, rep 2: 1.61e6; S2R+ cell number, rep 1: 1.08e6; S2R+ cell number, rep 2: 1.13e6; Outcome: inactive

For COX4L [DRSC04841], how do the results read?
Kc cell number, rep 1: 1.47e6; Kc cell number, rep 2: 1.54e6; S2R+ cell number, rep 1: 1.27e6; S2R+ cell number, rep 2: 1.20e6; Outcome: inactive

Which result is listed for CG18213 [DRSC15316]?
Kc cell number, rep 1: 1.22e6; Kc cell number, rep 2: 1.31e6; S2R+ cell number, rep 1: 1.07e6; S2R+ cell number, rep 2: 1.20e6; Outcome: inactive

For PIG-G [DRSC06823], how do the results read?
Kc cell number, rep 1: 1.44e6; Kc cell number, rep 2: 1.43e6; S2R+ cell number, rep 1: 1.26e6; S2R+ cell number, rep 2: 1.19e6; Outcome: inactive

What did the screen give for CG12520 [DRSC09892]?
Kc cell number, rep 1: 1.40e6; Kc cell number, rep 2: 1.40e6; S2R+ cell number, rep 1: 1.24e6; S2R+ cell number, rep 2: 1.27e6; Outcome: inactive

For Tsf2 [DRSC09751], how do the results read?
Kc cell number, rep 1: 1.47e6; Kc cell number, rep 2: 1.68e6; S2R+ cell number, rep 1: 1.30e6; S2R+ cell number, rep 2: 1.19e6; Outcome: inactive

Which result is listed for loh [DRSC01122]?
Kc cell number, rep 1: 1.46e6; Kc cell number, rep 2: 1.58e6; S2R+ cell number, rep 1: 1.06e6; S2R+ cell number, rep 2: 1.13e6; Outcome: inactive

With loh [DRSC02943], what does the deposit list?
Kc cell number, rep 1: 1.75e6; Kc cell number, rep 2: 1.81e6; S2R+ cell number, rep 1: 1.16e6; S2R+ cell number, rep 2: 1.32e6; Outcome: inactive

What did the screen give for Ldaf1 [DRSC17963]?
Kc cell number, rep 1: 5.24e5; S2R+ cell number, rep 1: 8.38e5; Outcome: inactive

Which result is listed for pk [DRSC06178]?
Kc cell number, rep 1: 1.55e6; Kc cell number, rep 2: 1.61e6; S2R+ cell number, rep 1: 1.32e6; S2R+ cell number, rep 2: 1.45e6; Outcome: inactive

Which result is listed for pk [DRSC07664]?
Kc cell number, rep 1: 1.64e6; Kc cell number, rep 2: 1.81e6; S2R+ cell number, rep 1: 1.33e6; S2R+ cell number, rep 2: 1.44e6; Outcome: inactive

For PpD3 [DRSC16796], what was measured?
Kc cell number, rep 1: 1.49e6; Kc cell number, rep 2: 1.49e6; S2R+ cell number, rep 1: 1.29e6; S2R+ cell number, rep 2: 1.30e6; Outcome: inactive

What is on record for CG2129 [DRSC18209]?
Kc cell number, rep 1: 5.01e5; S2R+ cell number, rep 1: 8.77e5; Outcome: inactive

Reformatted: entries from further up
gene knocked down	amplicon	Kc cell number, rep 1	Kc cell number, rep 2	S2R+ cell number, rep 1	S2R+ cell number, rep 2	Outcome
pk	DRSC06178	1.55e6	1.61e6	1.32e6	1.45e6	inactive
pk	DRSC07664	1.64e6	1.81e6	1.33e6	1.44e6	inactive
PpD3	DRSC16796	1.49e6	1.49e6	1.29e6	1.30e6	inactive

Further entries follow:
For CG34309 [DRSC14838], how do the results read?
Kc cell number, rep 1: 1.45e6; Kc cell number, rep 2: 1.45e6; S2R+ cell number, rep 1: 1.12e6; S2R+ cell number, rep 2: 1.22e6; Outcome: inactive

How did the screen score CG10510 [DRSC11614]?
Kc cell number, rep 1: 1.25e6; Kc cell number, rep 2: 1.48e6; S2R+ cell number, rep 1: 1.26e6; S2R+ cell number, rep 2: 1.38e6; Outcome: inactive

For Mkk4 [DRSC16739], how do the results read?
Kc cell number, rep 1: 1.50e6; Kc cell number, rep 2: 1.72e6; S2R+ cell number, rep 1: 1.20e6; S2R+ cell number, rep 2: 1.28e6; Outcome: inactive

How did the screen score raw [DRSC03599]?
Kc cell number, rep 1: 1.37e6; Kc cell number, rep 2: 1.44e6; S2R+ cell number, rep 1: 7.06e5; S2R+ cell number, rep 2: 7.88e5; Outcome: active

What is on record for raw [DRSC03600]?
Kc cell number, rep 1: 1.49e6; Kc cell number, rep 2: 1.52e6; S2R+ cell number, rep 1: 8.80e5; S2R+ cell number, rep 2: 1.06e6; Outcome: inactive

What did the screen give for CG2921 [DRSC04324]?
Kc cell number, rep 1: 1.36e6; Kc cell number, rep 2: 1.41e6; S2R+ cell number, rep 1: 1.11e6; S2R+ cell number, rep 2: 1.09e6; Outcome: inactive

What did the screen give for UGP + PGRP-LF [DRSC10418]?
Kc cell number, rep 1: 1.60e6; Kc cell number, rep 2: 1.64e6; S2R+ cell number, rep 1: 1.28e6; S2R+ cell number, rep 2: 1.42e6; Outcome: inactive

For CG3437 [DRSC10366], what was measured?
Kc cell number, rep 1: 1.43e6; Kc cell number, rep 2: 1.47e6; S2R+ cell number, rep 1: 1.17e6; S2R+ cell number, rep 2: 1.28e6; Outcome: inactive

How did the screen score CG10337 [DRSC02038]?
Kc cell number, rep 1: 1.87e6; Kc cell number, rep 2: 1.93e6; S2R+ cell number, rep 1: 1.28e6; S2R+ cell number, rep 2: 2.64e5; Outcome: inactive

How did the screen score Graf [DRSC20131]?
Kc cell number, rep 1: 5.60e5; S2R+ cell number, rep 1: 9.14e5; Outcome: inactive

Which result is listed for CG18530 [DRSC15341]?
Kc cell number, rep 1: 1.54e6; Kc cell number, rep 2: 1.67e6; S2R+ cell number, rep 1: 1.38e6; S2R+ cell number, rep 2: 1.51e6; Outcome: inactive

What is on record for CG10730 [DRSC02102]?
Kc cell number, rep 1: 1.67e6; Kc cell number, rep 2: 1.83e6; S2R+ cell number, rep 1: 1.42e6; S2R+ cell number, rep 2: 3.50e5; Outcome: inactive
